Test results published in paper PMC5855799.
No constants are given. Whether binding was seen depends on the method and setting. Binding seen in cells or lysates may run through a third protein. Some binding calls cover weakened binding; strength is not graded here.

Protein sequences, listed by entry. Tags and fused reporters are not part of them.
UniProt P05787: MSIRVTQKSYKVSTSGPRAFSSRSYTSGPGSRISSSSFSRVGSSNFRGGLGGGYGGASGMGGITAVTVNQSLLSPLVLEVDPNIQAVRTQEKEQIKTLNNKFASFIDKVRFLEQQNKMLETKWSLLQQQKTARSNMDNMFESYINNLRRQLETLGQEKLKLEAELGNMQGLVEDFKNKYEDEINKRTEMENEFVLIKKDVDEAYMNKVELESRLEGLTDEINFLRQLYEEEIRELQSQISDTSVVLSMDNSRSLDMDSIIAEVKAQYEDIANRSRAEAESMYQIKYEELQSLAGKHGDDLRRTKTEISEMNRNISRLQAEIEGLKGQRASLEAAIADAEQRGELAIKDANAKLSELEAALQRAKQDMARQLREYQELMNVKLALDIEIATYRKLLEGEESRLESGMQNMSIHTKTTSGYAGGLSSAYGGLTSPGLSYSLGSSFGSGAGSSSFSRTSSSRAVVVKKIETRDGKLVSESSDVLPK
UniProt P07355: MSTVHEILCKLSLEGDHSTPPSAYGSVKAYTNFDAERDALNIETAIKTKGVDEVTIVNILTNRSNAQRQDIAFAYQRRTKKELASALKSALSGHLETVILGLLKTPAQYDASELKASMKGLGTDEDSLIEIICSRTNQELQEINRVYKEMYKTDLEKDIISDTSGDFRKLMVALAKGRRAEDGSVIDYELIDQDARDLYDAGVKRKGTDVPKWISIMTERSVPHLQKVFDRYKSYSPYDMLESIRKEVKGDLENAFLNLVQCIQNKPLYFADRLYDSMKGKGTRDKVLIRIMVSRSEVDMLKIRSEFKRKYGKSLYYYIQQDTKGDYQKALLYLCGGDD

Target: Keratin-8 (human (endogenous in ACT1)) (UniProt P05787)
Assay: co-IP; magnetic bead-based immunoprecipitation from ACT1 lysates with antibodies to KRT8, annexin-A2 or non-targeting IgG; eluates probed by Western blot with KRT8 and annexin-A2 antibodies; repeated in triplicate

Annexin A2 (from UniProt P07355 1-339)
binding: binds
